# Assay results from article PMC7819943, “Rice protein-binding microarrays: a tool to detect cis-acting elements near promoter regions in rice”.
# The list shows a part of the results.
# Molecular target: T1, OsSMF1 (Oryza sativa, UniProt Q6ZLB0 1-436)
# T1 sequence: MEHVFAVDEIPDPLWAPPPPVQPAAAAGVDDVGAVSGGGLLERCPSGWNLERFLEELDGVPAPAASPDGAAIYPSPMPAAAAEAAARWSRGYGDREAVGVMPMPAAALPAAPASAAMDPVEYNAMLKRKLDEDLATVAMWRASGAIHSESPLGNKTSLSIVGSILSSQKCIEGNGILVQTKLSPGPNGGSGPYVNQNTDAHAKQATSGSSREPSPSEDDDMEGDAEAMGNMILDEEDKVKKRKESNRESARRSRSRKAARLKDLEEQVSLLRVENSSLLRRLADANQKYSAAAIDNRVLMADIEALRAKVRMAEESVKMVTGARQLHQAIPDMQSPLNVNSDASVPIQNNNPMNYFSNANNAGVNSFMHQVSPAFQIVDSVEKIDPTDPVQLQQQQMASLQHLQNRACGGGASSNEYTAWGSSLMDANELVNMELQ
# Assay: protein-binding microarray (RPBM); PBS, 2% BSA, 51.3 ng/ul salmon testes DNA, 50 uM zinc acetate, 200 nM TF, 25 C, 1 h; high values mean tight binding
# Conditions: protein: recombinant; tags: N-terminal polyhistidine and DsRed monomer fusion (pET32a); chain copies: 2; label: CyDye5-dUTP incorporated in the synthesized complementary strand; 3' TTTTT single-stranded linker to array surface; dsDNA, one strand shown
# Method in brief: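 Binding signal is reported as fluorescence intensity per feature (arbitrary units) from an Axon 4000B scanner. Incubation used 200 nM of each Ni–NTA-purified, N-terminally polyhistidine- and DsRed-fused transcription factor from E. coli BL21-CodonPlus on a double-stranded custom Agilent array for 1 h at 25 °C, with 50 µM zinc acetate in the buffer, followed by washing.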
row,Sequence,binding signal
1,CAACAGCACAATCTCATTGCATGACTCACACAAAACCAATCGGAGTCACCTAGTGCAG,7820 fluorescence intensity (a.u.)
2,CAGATGAATCATGATGGCATTATCAGCGGTATCGAGTCGTCGGAGTCACCTAGTGCAG,3510 fluorescence intensity (a.u.)
3,ATCTACGACTTGAACCCAGGTAAGCAAGTTCCACCACAAGCGGAGTCACCTAGTGCAG,3250 fluorescence intensity (a.u.)
4,ATCGGTTAGATCGTGTCCTTTTGCTTTTGTGTTCGGTTTTCGGAGTCACCTAGTGCAG,6940 fluorescence intensity (a.u.)
5,GAAGTGCTGCTGCAGAAGAAGCTCGTCATCAGGCAGGCTGCGGAGTCACCTAGTGCAG,4080 fluorescence intensity (a.u.)
6,GGGCCAAAACAAAGCCAGCGTGCAACCCTCGACAAAGCACCGGAGTCACCTAGTGCAG,4110 fluorescence intensity (a.u.)
7,TAAGTAAAATTCATACTCTCTCTATCTTGGAACATGTCTACGGAGTCACCTAGTGCAG,3230 fluorescence intensity (a.u.)
8,GGCCTTCCCATAATGGGCCTATCTGGACAAAGCCCGCTTACGGAGTCACCTAGTGCAG,3330 fluorescence intensity (a.u.)
9,TCGGTTGATAGCTATCTTCTTAGTGCTTCTAAGAAATTGACGGAGTCACCTAGTGCAG,20900 fluorescence intensity (a.u.)
10,GTGAATGTGCACGTGTTATAAGCGCATACGTTTATACTGTCGGAGTCACCTAGTGCAG,3670 fluorescence intensity (a.u.)
11,GCAACCACCGCCGCCTCGCCGCAGCATCACCCGCAGCCGCCGGAGTCACCTAGTGCAG,3150 fluorescence intensity (a.u.)
12,AAACAGAGGTTTAAGACACAAACAGATAGCTAGGACTAGCCGGAGTCACCTAGTGCAG,30200 fluorescence intensity (a.u.)
13,CAATAATACTATGAAAAGACCAAAGTGACGTGACCAATGGCGGAGTCACCTAGTGCAG,4170 fluorescence intensity (a.u.)
14,AGTCTACTGCACAAATGATTAATATATACGCCACGTGAACCGGAGTCACCTAGTGCAG,3280 fluorescence intensity (a.u.)
15,CAGGTGAAGAAATTCTGACGATGATGTGGTGAGGTGAGGTCGGAGTCACCTAGTGCAG,6150 fluorescence intensity (a.u.)
16,GGTAGTAAGGTCTTACCGTGCAGCCACCGCCAGGTGGGCCCGGAGTCACCTAGTGCAG,3280 fluorescence intensity (a.u.)
17,GAGGCGTCTGTGGTGACTTCGTCAATCTCTCTAGGATTTGCGGAGTCACCTAGTGCAG,3770 fluorescence intensity (a.u.)
18,AAGAAGCCGCCTTGGTTTGGTAGTACAATTGTTCATCGGCCGGAGTCACCTAGTGCAG,3360 fluorescence intensity (a.u.)
19,GGTTTAGACGTGGCGGTGGTGGGTGGCGTACGTTTGGGTTCGGAGTCACCTAGTGCAG,5180 fluorescence intensity (a.u.)
20,GCTGACGCGCGGGAACACGTGTGAGCCAGCACGTGACCACCGGAGTCACCTAGTGCAG,5280 fluorescence intensity (a.u.)
21,TTTATTTGTTTTGCTGATGATTTGCTACGTCAGCGAAACCCGGAGTCACCTAGTGCAG,27200 fluorescence intensity (a.u.)
22,GAAGAAGATTGCCGGTTGACTTGTGGAGTCCACGTGGGACCGGAGTCACCTAGTGCAG,8320 fluorescence intensity (a.u.)
23,GACACTGCCACCTCACTCTCCACTCCACTATATATACCCTCGGAGTCACCTAGTGCAG,8250 fluorescence intensity (a.u.)

# Fetched one by one from the entries so far (2):
row,Sequence,binding signal
23,GACACTGCCACCTCACTCTCCACTCCACTATATATACCCTCGGAGTCACCTAGTGCAG,8250 fluorescence intensity (a.u.)
16,GGTAGTAAGGTCTTACCGTGCAGCCACCGCCAGGTGGGCCCGGAGTCACCTAGTGCAG,3280 fluorescence intensity (a.u.)
